These are yes or no findings as the source states them, for the method shown. Some binding calls cover weakened binding; strength is not graded here.

The chains behind the UniProt entries cited, without tags or fusion partners. Residues count along the entry.
UniProt P0DKL3, residues 30-278: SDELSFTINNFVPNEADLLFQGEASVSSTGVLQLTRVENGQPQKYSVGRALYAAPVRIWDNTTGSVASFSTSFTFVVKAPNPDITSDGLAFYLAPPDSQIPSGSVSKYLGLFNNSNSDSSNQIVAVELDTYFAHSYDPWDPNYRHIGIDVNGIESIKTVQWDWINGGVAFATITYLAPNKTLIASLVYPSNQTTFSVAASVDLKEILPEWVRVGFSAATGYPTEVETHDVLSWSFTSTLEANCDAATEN

The test deals with lectin MAA from Maackia amurensis (Maackia amurensis) (UniProt P0DKL3). Description: solid-phase assay.

B1: SVC2 (VGGGS) (peptide)
peptide: VGGGS
In the case of B1, the binding result was “binds”.

Values taken from patent US20150299252A1.
